# No constants are given. Whether binding was seen depends on the method and setting. In cells and extracts the contact can be indirect. Some entries that bind do so weakly or less than the wild type. For part of these data: Tags and fused reporters may be left off the sequences shown.
# Sequences of proteins named here, by UniProt entry; tags and fusion partners are left off. A change or cut given only in a name is not applied to a line headed by its entry.
# UniProt Q13535: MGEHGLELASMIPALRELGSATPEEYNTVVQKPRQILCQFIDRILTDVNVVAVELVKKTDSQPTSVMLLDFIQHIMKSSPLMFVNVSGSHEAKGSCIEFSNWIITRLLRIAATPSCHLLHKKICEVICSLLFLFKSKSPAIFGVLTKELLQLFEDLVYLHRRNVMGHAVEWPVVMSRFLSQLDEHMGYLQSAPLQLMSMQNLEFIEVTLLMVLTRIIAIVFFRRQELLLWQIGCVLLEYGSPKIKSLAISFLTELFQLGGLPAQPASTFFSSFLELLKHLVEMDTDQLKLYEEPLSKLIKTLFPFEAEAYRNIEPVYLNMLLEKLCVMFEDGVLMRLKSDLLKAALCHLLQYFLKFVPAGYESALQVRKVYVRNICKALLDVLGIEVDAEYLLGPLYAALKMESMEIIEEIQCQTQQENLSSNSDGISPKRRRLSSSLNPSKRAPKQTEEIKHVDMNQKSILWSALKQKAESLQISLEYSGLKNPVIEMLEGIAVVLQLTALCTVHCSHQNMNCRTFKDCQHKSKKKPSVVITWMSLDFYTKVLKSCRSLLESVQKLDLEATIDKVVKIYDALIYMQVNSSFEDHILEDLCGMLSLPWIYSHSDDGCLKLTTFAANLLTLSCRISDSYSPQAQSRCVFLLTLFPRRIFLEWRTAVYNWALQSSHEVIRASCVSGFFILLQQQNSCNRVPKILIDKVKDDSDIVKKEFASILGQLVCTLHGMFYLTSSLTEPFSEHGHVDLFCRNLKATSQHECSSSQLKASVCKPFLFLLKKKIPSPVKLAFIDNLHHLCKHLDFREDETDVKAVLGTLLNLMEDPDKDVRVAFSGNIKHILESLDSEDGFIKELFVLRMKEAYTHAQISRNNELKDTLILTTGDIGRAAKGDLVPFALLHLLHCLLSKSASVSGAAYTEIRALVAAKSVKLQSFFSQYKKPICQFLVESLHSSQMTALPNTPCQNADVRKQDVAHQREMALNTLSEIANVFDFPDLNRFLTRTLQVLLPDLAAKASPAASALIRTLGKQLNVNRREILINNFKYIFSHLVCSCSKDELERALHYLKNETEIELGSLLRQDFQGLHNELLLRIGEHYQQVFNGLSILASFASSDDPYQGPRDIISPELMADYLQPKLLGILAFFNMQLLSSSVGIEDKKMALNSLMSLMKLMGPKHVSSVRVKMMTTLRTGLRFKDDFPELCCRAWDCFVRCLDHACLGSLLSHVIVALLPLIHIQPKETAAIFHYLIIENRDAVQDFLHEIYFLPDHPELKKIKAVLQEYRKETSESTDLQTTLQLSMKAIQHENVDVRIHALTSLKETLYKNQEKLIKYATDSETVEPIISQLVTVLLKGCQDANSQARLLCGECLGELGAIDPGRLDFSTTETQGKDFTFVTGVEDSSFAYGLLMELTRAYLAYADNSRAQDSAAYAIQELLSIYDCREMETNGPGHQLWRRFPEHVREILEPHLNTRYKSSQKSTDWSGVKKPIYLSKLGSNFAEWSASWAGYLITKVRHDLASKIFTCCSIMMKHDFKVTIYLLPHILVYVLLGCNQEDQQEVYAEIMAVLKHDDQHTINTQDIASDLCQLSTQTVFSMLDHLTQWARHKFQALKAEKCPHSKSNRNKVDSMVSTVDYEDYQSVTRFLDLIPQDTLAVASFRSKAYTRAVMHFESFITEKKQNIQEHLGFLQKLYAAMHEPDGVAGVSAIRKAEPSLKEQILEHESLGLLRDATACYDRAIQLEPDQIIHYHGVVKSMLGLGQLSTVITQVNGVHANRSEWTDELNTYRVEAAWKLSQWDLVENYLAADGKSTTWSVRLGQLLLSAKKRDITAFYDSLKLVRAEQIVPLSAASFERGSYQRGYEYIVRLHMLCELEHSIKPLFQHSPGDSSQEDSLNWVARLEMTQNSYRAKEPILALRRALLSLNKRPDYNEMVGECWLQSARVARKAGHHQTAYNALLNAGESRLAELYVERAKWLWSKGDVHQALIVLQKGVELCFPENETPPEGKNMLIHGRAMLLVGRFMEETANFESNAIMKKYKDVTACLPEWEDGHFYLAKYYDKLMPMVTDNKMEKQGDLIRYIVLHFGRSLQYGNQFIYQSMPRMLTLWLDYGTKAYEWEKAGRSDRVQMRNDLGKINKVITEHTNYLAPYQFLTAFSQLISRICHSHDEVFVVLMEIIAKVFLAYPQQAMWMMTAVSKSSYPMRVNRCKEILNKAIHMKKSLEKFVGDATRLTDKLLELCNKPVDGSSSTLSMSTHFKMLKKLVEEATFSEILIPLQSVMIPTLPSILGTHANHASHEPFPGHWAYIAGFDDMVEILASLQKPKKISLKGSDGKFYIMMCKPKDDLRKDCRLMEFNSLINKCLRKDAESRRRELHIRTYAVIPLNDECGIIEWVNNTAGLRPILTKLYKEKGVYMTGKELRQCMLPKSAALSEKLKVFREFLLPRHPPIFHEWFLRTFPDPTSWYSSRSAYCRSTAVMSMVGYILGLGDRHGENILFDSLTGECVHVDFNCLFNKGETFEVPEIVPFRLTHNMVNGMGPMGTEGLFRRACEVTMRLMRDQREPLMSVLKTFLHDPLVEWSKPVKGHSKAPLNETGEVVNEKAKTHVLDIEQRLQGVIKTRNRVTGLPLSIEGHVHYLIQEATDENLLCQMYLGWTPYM
# UniProt Q13547: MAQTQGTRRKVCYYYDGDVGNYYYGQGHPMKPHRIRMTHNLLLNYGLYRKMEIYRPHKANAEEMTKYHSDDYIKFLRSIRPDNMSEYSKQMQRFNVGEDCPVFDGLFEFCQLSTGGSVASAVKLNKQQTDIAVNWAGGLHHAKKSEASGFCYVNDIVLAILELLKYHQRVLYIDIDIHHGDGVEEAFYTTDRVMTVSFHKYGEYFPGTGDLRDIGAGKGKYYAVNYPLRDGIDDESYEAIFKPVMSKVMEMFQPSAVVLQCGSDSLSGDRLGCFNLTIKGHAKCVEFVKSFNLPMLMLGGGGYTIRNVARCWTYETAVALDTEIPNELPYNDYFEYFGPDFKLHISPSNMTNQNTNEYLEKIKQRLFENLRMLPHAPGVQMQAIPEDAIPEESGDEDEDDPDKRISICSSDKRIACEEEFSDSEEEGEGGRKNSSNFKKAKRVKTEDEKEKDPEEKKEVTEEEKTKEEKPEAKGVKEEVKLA
# UniProt Q09028: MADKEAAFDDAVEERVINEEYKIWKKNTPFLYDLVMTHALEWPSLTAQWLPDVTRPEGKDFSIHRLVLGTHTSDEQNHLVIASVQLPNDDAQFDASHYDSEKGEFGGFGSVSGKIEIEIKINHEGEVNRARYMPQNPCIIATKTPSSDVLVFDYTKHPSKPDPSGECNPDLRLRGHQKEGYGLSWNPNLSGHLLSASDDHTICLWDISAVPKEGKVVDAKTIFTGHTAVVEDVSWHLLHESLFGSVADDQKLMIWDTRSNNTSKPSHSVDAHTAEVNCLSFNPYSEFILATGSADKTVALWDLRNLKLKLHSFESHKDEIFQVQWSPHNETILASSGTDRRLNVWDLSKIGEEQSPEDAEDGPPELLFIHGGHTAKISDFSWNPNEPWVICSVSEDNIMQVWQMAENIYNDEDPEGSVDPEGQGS
# T1: Myc-DDK-tagged ZNF827 (wild type) (UniProt Q17R98)
# T1 sequence: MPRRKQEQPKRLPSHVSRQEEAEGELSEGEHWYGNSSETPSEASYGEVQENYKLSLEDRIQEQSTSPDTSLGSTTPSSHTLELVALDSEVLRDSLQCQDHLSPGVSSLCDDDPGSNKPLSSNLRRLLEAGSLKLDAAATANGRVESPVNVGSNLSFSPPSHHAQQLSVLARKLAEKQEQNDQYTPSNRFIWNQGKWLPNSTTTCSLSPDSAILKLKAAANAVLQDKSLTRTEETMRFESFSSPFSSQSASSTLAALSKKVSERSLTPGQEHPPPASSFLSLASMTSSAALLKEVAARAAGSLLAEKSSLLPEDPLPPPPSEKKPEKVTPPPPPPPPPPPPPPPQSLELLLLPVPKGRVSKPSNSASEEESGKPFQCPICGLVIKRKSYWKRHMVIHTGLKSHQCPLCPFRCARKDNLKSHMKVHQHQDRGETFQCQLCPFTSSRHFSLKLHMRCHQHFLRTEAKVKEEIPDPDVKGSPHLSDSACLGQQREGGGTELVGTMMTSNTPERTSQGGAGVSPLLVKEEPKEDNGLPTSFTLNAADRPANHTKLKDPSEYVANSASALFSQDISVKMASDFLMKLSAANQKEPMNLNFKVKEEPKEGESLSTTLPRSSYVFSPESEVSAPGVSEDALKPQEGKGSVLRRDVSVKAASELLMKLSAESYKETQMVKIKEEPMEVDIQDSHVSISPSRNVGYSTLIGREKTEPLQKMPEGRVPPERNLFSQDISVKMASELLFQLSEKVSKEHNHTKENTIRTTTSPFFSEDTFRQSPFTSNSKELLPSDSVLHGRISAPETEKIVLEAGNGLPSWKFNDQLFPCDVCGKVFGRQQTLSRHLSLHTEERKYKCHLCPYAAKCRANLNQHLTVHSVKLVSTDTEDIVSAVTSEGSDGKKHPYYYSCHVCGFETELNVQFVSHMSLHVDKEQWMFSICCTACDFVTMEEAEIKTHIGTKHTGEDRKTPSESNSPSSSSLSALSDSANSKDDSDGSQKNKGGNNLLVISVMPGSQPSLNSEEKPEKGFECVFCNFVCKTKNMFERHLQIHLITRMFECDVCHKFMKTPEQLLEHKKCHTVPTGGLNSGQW
# T2: ZNF827 (overexpressed; precipitated with a direct ZNF827 antibody) (UniProt Q17R98)
# T2 sequence: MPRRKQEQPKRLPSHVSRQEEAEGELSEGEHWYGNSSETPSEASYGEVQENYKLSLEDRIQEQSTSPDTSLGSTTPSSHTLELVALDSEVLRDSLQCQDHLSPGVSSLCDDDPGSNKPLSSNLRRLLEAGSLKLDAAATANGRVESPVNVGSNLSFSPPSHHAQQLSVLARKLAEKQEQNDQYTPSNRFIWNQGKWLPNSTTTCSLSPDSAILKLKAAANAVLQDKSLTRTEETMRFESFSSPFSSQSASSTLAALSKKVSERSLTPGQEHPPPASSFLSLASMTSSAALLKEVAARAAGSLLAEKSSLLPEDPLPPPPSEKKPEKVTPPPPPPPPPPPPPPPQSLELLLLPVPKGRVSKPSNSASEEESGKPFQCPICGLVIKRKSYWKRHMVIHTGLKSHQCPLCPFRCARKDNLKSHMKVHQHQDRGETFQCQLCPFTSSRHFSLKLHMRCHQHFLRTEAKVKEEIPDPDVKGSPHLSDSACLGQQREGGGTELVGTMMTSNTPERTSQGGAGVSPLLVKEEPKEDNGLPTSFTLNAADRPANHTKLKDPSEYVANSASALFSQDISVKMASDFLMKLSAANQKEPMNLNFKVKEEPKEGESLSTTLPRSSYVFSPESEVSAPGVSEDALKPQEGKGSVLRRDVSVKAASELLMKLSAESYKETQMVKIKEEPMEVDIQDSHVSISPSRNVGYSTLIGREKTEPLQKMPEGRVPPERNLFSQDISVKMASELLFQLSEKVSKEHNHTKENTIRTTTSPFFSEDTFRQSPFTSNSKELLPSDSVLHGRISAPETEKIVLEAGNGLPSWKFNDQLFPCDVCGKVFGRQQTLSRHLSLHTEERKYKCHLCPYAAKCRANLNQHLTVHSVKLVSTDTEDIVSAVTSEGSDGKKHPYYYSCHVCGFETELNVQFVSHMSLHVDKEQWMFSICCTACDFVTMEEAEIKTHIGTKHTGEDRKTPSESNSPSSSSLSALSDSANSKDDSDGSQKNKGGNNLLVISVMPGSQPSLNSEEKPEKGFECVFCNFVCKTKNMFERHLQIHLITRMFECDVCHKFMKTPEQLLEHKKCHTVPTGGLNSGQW
# Assays:
# [1] = biological target: T1, Myc-DDK-tagged ZNF827 (wild type); assay: co-IP; after treatment with benzonase; IP with a Myc antibody, western blot of the partners; U-2 OS cells overexpressing Myc-tagged ZNF827, ZNF827 ΔRRK and ZNF827 ZnFΔ1-3
# [2] = biological target: T2, ZNF827 (overexpressed; precipitated with a direct ZNF827 antibody); assay: co-IP; IP with a direct ZNF827 antibody, western blot of the partners; U-2 OS cells overexpressing ZNF827 (Fig. 1E) and HT1080 cells (Supplementary Fig. 1F); without benzonase
# [3] = biological target: T2, ZNF827 (overexpressed; precipitated with a direct ZNF827 antibody); assay: co-IP; IP with a direct ZNF827 antibody, western blot of the partners; U-2 OS cells overexpressing ZNF827; after treatment with the nuclease benzonase
# [4] = biological target: T2, ZNF827 (overexpressed; precipitated with a direct ZNF827 antibody); assay: co-IP; co-IP of ZNF827 (Supplementary Fig. 2A); cells, antibody and construct not shown
binding [1],binding [2],binding [3],binding [4],Molecule
binds,,,,Ataxia telangiectasia mutated and Rad3-related (ATR) (from UniProt Q13535 1-2644)
,binds,binds,,HDAC1 (NuRD component) (from UniProt Q13547 1-482)
,binds,binds,,RBBP4 (NuRD component) (from UniProt Q09028 1-425)
,,,binds,"Rad9 (9-1-1 DNA damage sensor complex component) (protein, UniProt Q99638 1-391) MKCLVTGGNVKVLGKAVHSLSRIGDELYLEPLEDGLSLRTVNSSRSAYACFLFAPLFFQQYQAATPGQDLLRCKILMKSFLSVFRSLAMLEKTVEKCCISLNGRSSRLVVQLHCKFGVRKTHNLSFQDCESLQAVFDPASCPHMLRAPARVLGEAVLPFSPALAEVTLGIGRGRRVILRSYHEEEADSTAKAMVTEMCLGEEDFQQLQAQEGVAITFCLKEFRGLLSFAESANLNLSIHFDAPGRPAIFTIKDSLLDGHFVLATLSDTDSHSQDLGSPERHQPVPQLQAHSTPHPDDFANDDIDSYMIAMETTIGNEGSRVLPSISLSPGPQPPKSPGPHSEEEDEAEPSTVPGTPPPKKFRSLFFGSILAPVRSPQGPSPVLAEDSEGEG"
binds,,,,"Ewing tumour-associated antigen 1 (ETAA1) (protein, UniProt Q9NY74 1-926) MSRRRKHDDSPSPKKTPHKTVAAEECGSVVEPGRRRLRSARGSWPCGAREGPPGPVRQREQPPTAALCSKSNPEERYETPKRALKMDSLSSSFSSPNDPDGQNDIFWDQNSPLTKQLGKGRKKQIYTTDSDEISHIVNRIAPQDEKPTTNSMLDMWIGETAIPCTPSVAKGKSRAKISCTKLKTQSQEEELMKLAKQFDKNMEELDVIQEQNKRNYDFTQMISETEILSNYKDNIQMWSLHNIVPEIDNATKKPIKGNTKISVANNQNSSQKPFDQIAEAAFNAIFDGSTQKCSGQLSQELPEAFWSTSNTTFVKTNALKEEKIITNETLVIEKLSNKTPRSLSSQVDTPIMTKSCVTSCTKEPETSNKYIDAFTTSDFEDDWENLLGSEPFAMQNIDMPELFPSKTAHVTDQKEICTFNSKTVKNTSRANTSPDARLGDSKVLQDLSSKTYDRELIDAEYRFSPNSNKSNKLSTGNKMKFENSSNKIVIQDEIQNCIVTSNLTKIKEDILTNSTEASERKSALNTRYSNEQKNKCILNQSIKAPVNTDLFGSANLGSKTSVSNPNQTSASKVGSFFDDWNDPSFANEIIKACHQLDNTWEADDVDDDLLYQACDDIERLTQQQDIRKDSKTSESICEINNNSEHGAKLTQQQDIRKDSKTSESICEINNNSEHGAKNMFAISKQGSNLVQSKHLNPGSISVQTSLTNSSQIDKPMKMEKGEMYGNSPRFLGATNLTMYSKISNCQINNLHVSYTNTDVPIQVNSSKLVLPGSSSLNVTSDHMNTEITTYKKKLSTNQPCHKTVTDEAQSNLNTTVGFSKFTFTRMKNSQILSQFNQNCITGSMSDTKITQGVEKKKGVNPLLEEAVGQQSLVKLSESLKQSSKEEEEKNRKCSPEEIQRKRQEALVRRMAKARASSVNAAPTSFL"
binds,,,binds,"ATR-interacting protein (ATRIP) (protein, UniProt Q8WXE1 1-791) MAGTSAPGSKRRSEPPAPRPGPPPGTGHPPSKRARGFSAAAAPDPDDPFGAHGDFTADDLEELDTLASQALSQCPAAARDVSSDHKVHRLLDGMSKNPSGKNRETVPIKDNFELEVLQAQYKELKEKMKVMEEEVLIKNGEIKILRDSLHQTESVLEEQRRSHFLLEQEKTQALSDKEKEFSKKLQSLQSELQFKDAEMNELRTKLQTSERANKLAAPSVSHVSPRKNPSVVIKPEACSPQFGKTSFPTKESFSANMSLPHPCQTESGYKPLVGREDSKPHSLRGDSIKQEEAQKSFVDSWRQRSNTQGSILINLLLKQPLIPGSSLSLCHLLSSSSESPAGTPLQPPGFGSTLAGMSGLRTTGSYDGSFSLSALREAQNLAFTGLNLVARNECSRDGDPAEGGRRAFPLCQLPGAVHFLPLVQFFIGLHCQALQDLAAAKRSGAPGDSPTHSSCVSSGVETNPEDSVCILEGFSVTALSILQHLVCHSGAVVSLLLSGVGADSAAGEGNRSLVHRLSDGDMTSALRGVADDQGQHPLLKMLLHLLAFSSAATGHLQASVLTQCLKVLVKLAENTSCDFLPRFQCVFQVLPKCLSPETPLPSVLLAVELLSLLADHDQLAPQLCSHSEGCLLLLLYMYITSRPDRVALETQWLQLEQEVVWLLAKLGVQSPLPPVTGSNCQCNVEVVRALTVMLHRQWLTVRRAGGPPRTDQQRRTVRCLRDTVLLLHGLSQKDKLFMMHCVEVLHQFDQVMPGVSMLIRGLPDVTDCEEAALDDLCAAETDVEDPEVECG"

# From article PMC10933417
